Assay [1] has as its target T1, LKB1-Flag (Liver kinase B1, Flag-tagged, wild type) (UniProt Q15831).
T1 sequence: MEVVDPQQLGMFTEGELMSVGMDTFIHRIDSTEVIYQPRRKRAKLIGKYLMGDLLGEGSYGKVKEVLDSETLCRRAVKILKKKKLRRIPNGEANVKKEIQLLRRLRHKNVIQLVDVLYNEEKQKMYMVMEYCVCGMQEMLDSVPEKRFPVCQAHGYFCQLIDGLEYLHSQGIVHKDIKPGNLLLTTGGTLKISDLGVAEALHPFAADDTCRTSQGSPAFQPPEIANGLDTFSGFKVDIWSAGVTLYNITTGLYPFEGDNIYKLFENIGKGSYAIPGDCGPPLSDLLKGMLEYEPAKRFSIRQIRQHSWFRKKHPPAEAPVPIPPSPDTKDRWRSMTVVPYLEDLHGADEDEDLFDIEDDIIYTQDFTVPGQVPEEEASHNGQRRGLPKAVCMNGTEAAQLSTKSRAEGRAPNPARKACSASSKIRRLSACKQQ
Description: co-IP; 293T cells transfected with LKB1-Flag and JOSD2-HA for 48 h, nucleoplasmic separation, IPs from cytoplasmic and nuclear fractions.

Assay [2] deals with T1, LKB1-Flag (Liver kinase B1, Flag-tagged, wild type). Description: co-IP; IPs by Flag beads from 293FT cells transfected with vector or JOSD2-HA along with vector or LKB1-Flag for 48 h, immunoblot. On the technique in general: In western blotting, separated proteins are transferred to a membrane and probed.
For assay [3], the target named is T2, endogenous LKB1 (NCI-H1299 cells) (human (endogenous in NCI-H1299)) (UniProt Q15831).
T2 sequence: T1 sequence
Description: co-IP; endogenous proteins; IPs by control IgG or anti-LKB1 antibody from NCI-H1299 cells, immunoblot.

These are yes or no findings as the source states them, for the method shown. Binding seen in cells or lysates may run through a third protein. Some binding calls cover weakened binding; strength is not graded here. For part of these data: Sequences can lack the tags named with a protein.

B1: JOSD2-HA (Josephin Domain-containing protein 2, HA-tagged) (enzyme, UniProt Q8TAC2 1-188)
chain: MSQAPGAQPSPPTVYHERQRLELCAVHALNNVLQQQLFSQEAADEICKRLAPDSRLNPHRSLLGTGNYDVNVIMAALQGLGLAAVWWDRRRPLSQLALPQVLGLILNLPSPVSLGLLSLPLRRRHWVALRQVDGVYYNLDSKLRAPEALGDEDGVRAFLAAALAQGLCEVLLVVTKEVEEKGSWLRTD
For B1, the binding entry in assay [1] and in assay [2] was “binds” throughout.

B2: endogenous JOSD2 (NCI-H1299 cells) (enzyme, UniProt Q8TAC2 1-188)
chain: B1 chain
As for B2, the binding result in assay [3] is listed as “binds”.

Source of the values: publication PMC10766984, “Josephin domain containing 2 (JOSD2) promotes lung cancer by inhibiting LKB1 (Liver kinase B1) activity” (Signal Transduction and Targeted Therapy, 2024).
